Data from patent US20230414619A1.
Results are given in words; binding and its absence hold for the method and conditions named. Some entries that bind do so weakly or less than the wild type.

Chains of the proteins cited; added tags and fusions are not shown. Lines headed by an entry give the natural chain unless they say otherwise; changes in a name come on top. Residues count along the entry.
UniProt P06730, residues 2-217: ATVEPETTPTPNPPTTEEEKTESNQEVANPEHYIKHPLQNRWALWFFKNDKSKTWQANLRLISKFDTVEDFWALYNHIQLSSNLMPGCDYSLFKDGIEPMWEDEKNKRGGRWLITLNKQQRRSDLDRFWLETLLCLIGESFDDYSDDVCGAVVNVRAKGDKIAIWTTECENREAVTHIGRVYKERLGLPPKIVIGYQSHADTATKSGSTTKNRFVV
UniProt Q7JJ13: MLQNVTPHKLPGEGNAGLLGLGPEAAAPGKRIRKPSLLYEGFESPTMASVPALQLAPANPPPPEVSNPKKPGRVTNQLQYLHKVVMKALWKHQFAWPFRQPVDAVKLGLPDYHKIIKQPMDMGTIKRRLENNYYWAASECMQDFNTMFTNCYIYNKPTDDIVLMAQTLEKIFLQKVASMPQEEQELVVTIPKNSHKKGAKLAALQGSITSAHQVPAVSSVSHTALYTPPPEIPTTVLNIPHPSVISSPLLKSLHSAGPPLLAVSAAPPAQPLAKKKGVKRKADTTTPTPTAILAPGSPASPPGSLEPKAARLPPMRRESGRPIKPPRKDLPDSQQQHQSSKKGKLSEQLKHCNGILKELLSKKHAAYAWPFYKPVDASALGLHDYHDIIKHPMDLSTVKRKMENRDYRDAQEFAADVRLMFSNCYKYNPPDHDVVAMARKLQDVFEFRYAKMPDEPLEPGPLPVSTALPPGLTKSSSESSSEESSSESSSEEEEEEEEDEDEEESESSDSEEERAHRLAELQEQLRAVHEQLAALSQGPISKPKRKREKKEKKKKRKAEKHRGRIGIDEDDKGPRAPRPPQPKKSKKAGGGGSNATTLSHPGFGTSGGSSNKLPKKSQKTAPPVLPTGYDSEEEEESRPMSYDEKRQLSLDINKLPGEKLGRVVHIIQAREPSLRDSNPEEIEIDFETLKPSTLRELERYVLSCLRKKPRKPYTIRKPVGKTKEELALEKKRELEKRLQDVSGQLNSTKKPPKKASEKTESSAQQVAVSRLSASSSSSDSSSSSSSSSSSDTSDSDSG
UniProt Q6PDG5: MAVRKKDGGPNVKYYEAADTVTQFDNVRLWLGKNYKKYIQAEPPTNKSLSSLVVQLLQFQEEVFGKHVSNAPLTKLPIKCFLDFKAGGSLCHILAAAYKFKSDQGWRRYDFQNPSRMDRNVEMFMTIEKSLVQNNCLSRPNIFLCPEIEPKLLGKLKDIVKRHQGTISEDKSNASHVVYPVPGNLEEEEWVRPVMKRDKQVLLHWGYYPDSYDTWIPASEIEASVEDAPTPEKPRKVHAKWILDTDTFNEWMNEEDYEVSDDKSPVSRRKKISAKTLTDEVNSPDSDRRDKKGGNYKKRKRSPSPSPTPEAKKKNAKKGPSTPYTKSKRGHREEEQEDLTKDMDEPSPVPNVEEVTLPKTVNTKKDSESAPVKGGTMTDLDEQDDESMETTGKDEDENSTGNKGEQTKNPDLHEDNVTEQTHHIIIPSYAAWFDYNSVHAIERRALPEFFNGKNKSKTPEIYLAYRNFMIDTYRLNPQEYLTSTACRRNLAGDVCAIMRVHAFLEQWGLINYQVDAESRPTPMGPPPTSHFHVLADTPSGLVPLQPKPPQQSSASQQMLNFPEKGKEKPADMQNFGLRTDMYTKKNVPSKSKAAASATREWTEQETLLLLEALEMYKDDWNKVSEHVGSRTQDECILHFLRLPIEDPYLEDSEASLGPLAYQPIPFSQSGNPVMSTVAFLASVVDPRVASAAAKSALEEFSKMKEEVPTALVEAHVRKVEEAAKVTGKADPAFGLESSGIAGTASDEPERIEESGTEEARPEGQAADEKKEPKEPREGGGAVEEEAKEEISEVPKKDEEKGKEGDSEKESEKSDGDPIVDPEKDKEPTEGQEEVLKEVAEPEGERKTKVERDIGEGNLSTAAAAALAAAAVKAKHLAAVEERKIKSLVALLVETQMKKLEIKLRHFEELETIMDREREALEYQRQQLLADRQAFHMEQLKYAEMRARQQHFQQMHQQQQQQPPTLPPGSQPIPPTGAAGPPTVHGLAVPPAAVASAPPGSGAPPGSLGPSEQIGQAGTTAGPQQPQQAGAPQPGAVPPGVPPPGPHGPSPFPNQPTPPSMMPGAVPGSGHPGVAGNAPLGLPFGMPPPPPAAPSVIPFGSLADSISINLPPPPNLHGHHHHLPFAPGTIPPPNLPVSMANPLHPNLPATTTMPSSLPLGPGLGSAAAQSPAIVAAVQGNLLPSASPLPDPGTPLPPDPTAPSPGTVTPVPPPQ
UniProt Q8C3P7, residues 2-580: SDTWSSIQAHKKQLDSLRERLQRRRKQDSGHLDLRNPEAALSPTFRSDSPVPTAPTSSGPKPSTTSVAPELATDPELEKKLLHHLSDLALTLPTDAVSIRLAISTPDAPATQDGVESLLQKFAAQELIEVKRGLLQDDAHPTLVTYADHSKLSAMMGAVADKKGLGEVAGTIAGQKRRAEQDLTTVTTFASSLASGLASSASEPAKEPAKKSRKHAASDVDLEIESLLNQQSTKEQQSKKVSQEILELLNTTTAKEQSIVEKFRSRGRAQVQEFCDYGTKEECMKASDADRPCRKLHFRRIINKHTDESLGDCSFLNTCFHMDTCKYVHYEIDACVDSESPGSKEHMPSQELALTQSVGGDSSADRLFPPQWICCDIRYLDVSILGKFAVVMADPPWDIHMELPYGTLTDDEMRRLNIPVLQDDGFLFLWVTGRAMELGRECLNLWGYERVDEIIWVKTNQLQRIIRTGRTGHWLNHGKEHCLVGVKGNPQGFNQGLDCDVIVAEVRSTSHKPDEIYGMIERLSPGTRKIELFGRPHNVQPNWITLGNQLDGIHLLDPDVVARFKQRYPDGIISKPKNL
UniProt Q921E6, residues 2-441: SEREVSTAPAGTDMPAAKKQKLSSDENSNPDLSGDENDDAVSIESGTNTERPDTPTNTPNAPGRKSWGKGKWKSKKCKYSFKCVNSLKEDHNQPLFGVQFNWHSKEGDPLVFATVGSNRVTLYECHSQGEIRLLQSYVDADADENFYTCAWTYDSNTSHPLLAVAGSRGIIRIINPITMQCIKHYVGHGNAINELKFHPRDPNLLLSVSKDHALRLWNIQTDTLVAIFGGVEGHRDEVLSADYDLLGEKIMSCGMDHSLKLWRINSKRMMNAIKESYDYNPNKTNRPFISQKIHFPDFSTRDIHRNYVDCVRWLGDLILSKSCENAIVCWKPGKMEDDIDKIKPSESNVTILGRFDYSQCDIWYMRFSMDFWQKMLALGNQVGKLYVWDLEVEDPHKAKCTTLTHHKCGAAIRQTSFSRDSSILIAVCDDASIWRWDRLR
UniProt Q80U70: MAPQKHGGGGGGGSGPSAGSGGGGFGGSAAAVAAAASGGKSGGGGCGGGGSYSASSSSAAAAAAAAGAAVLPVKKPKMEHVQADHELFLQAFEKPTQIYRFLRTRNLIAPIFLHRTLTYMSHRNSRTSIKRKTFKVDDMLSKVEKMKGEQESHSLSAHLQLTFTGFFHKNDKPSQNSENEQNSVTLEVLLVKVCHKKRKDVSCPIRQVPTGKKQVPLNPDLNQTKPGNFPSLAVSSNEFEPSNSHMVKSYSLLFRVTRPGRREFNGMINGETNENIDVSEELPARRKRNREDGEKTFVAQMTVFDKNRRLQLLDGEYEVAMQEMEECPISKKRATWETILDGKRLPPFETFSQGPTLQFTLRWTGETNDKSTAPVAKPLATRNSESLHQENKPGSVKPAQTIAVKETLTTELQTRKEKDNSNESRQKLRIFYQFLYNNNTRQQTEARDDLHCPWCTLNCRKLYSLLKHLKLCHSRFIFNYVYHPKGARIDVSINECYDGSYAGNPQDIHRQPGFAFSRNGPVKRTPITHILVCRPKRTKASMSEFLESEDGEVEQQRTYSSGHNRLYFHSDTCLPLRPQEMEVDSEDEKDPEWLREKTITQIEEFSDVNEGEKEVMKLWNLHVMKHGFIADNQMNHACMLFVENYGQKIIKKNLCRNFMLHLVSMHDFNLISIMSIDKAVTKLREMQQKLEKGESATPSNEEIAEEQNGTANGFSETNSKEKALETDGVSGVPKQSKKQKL
UniProt Q61188: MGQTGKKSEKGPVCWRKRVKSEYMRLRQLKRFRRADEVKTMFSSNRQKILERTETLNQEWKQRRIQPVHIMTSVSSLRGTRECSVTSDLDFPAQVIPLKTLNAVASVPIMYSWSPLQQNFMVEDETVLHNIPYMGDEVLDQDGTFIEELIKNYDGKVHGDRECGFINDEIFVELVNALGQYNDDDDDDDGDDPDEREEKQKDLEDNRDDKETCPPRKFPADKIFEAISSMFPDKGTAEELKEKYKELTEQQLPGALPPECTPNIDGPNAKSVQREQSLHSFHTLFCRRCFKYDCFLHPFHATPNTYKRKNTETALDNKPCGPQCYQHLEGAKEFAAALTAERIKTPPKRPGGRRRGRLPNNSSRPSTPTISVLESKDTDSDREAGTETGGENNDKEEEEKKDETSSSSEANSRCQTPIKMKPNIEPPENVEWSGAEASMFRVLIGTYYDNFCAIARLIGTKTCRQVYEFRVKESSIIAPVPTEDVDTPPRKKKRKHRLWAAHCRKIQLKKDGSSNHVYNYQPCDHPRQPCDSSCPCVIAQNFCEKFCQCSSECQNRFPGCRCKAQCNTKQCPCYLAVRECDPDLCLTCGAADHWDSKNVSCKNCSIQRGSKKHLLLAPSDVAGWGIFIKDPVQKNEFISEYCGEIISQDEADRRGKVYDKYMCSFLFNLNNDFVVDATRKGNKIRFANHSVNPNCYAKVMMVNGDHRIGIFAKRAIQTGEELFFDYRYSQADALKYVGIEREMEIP
UniProt Q86U44: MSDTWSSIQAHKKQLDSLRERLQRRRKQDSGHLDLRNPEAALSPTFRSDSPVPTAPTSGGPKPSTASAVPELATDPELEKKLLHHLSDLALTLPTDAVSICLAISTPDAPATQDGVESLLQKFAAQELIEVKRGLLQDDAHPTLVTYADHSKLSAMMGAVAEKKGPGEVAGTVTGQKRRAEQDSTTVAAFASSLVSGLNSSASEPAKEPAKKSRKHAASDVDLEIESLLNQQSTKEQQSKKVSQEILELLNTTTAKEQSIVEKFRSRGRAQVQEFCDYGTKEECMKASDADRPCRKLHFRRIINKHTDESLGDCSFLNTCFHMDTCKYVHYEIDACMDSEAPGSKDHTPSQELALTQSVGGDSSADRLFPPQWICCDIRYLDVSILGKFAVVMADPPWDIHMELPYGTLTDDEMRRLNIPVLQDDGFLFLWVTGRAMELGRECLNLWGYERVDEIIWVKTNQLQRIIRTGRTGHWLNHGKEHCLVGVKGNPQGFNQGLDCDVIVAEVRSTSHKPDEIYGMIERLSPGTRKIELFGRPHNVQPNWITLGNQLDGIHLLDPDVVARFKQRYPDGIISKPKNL
UniProt Q9Z148: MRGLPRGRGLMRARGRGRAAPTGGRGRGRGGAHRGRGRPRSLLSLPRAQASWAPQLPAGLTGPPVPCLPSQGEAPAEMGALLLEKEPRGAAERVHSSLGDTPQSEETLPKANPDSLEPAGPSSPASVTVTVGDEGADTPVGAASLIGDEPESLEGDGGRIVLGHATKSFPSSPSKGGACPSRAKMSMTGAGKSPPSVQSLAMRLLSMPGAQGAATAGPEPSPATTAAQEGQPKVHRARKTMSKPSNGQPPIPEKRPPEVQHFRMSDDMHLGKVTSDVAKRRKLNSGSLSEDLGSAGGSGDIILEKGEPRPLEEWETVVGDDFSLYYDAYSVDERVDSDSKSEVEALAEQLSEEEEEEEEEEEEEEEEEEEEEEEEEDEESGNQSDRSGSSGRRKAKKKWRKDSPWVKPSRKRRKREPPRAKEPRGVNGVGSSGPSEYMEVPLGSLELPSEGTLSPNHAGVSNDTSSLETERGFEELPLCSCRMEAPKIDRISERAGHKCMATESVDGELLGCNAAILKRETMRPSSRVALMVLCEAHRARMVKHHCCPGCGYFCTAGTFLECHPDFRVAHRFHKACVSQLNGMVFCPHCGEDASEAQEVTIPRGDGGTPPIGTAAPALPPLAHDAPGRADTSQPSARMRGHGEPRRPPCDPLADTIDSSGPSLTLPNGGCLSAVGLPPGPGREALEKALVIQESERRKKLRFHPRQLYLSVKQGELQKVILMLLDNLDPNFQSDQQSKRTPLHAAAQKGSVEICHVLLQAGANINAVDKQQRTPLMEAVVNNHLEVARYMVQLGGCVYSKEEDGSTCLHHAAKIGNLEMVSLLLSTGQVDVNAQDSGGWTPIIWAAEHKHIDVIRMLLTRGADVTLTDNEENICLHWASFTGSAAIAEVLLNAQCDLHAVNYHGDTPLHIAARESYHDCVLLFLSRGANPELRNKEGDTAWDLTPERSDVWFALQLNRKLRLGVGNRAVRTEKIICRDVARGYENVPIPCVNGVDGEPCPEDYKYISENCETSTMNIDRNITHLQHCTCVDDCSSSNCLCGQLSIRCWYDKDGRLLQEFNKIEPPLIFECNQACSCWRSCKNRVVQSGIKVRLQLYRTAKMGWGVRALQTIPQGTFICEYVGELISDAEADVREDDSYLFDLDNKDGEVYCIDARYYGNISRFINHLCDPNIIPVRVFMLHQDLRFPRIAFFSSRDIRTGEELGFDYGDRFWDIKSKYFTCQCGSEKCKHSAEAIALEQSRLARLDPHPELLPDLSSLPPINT

Assays:
eIF3b = eIF3b (UniProt P55884); assay: Flag IP and immunoblot, densitometry
eIF4e = eIF4e (UniProt P06730); assay: Flag IP and immunoblot, ET 293-TLR4/CD14/MD2 cells
BRD2 (mouse) = BRD2 (mouse) (UniProt Q7JJ13); assay: UNC0965 ChaC-MS (recap)
CREBBP (mouse) = CREBBP (mouse) (UniProt P45481); assay: UNC0965 ChaC-MS (recap)
SMARCA2 (mouse) = SMARCA2 (mouse) (UniProt Q6DIC0); assay: UNC0965 ChaC-MS (recap)
SMARCA4 (mouse) = SMARCA4 (mouse) (UniProt Q3TKT4); assay: UNC0965 ChaC-MS (recap)
SMARCC2 (mouse) = SMARCC2 (mouse) (UniProt Q6PDG5); assay: UNC0965 ChaC-MS (recap)
[1] = target: endogenous METTL3 of Raw 264.7 macrophages (mouse) (UniProt Q8C3P7); assay: UNC0965 ChaC-MS (recap)
[2] = target: T1, splicing factor SF3B1 (mouse) (UniProt Q99NB9); assay: UNC0965 ChaC-MS (recap)
T1 sequence (looked up): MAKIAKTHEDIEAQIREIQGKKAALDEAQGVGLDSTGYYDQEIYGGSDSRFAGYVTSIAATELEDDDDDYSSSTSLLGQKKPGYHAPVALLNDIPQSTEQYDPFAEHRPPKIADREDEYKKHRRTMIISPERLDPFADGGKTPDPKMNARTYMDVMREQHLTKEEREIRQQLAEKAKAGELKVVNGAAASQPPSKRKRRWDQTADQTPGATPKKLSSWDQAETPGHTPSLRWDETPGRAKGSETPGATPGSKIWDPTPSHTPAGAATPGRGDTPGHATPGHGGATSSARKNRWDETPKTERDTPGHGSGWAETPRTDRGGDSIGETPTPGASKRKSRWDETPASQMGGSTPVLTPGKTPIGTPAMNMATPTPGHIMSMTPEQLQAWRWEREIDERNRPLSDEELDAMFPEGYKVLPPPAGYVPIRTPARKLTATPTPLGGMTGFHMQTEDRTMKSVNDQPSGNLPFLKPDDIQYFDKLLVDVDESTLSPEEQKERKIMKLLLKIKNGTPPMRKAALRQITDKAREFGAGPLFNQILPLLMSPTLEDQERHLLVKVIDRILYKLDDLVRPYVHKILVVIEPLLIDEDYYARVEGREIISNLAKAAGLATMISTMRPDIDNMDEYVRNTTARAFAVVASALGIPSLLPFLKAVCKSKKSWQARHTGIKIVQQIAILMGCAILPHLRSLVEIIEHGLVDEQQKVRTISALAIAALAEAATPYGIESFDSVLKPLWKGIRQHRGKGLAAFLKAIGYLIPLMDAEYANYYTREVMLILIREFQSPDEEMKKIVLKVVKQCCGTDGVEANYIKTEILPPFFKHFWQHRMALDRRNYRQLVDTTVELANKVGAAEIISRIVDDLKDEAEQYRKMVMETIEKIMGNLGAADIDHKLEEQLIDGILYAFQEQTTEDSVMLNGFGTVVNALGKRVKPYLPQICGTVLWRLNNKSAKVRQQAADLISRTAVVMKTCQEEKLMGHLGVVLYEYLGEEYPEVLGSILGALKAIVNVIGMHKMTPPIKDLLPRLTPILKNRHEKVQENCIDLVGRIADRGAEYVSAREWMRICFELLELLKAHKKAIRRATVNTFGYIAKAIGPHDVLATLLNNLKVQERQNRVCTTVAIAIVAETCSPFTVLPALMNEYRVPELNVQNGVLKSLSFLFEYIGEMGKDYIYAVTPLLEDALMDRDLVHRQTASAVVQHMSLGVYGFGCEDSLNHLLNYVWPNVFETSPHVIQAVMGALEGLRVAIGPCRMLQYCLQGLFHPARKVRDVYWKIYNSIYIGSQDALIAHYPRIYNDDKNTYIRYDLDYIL

EED (mouse) = EED (mouse) (UniProt Q921E6); assay: LFQ UNC0965 ChaC-MS, macrophages
SUZ12 (mouse) = SUZ12 (mouse) (UniProt Q80U70); assay: LFQ UNC0965 ChaC-MS, macrophages
[3] = target: histone methyltransferase Ezh2 (Enhancer of zeste homolog 2) (mouse) (UniProt Q61188); assay: LFQ UNC0965 ChaC-MS, macrophages
[4] = target: T1, splicing factor SF3B1 (mouse); assay: LFQ UNC0965 ChaC-MS, Raw 264.7 macrophages
[5] = target: endogenous METTL3 of Raw 264.7 macrophages (mouse) (UniProt Q8C3P7); assay: UNC0965 pull-down and immunoblot, Raw264.7 macrophages

Measured: binding

Flag-K215R METTL3 (from UniProt Q86U44 1-580) (enzyme)
binds: eIF3b | eIF4e

Flag-K281R METTL3 (from UniProt Q86U44 1-580) (enzyme)
binds: eIF3b | eIF4e

endogenous G9a of Raw 264.7 macrophages (from UniProt Q9Z148 1-1263) (enzyme)
not listed: eIF3b | eIF4e
binds: all other assays above
